Laboratory results published in PubChem BioAssay AID1347075 (National Center for Advancing Translational Sciences (NCATS), 2019).
Screen size: about 400,000 compounds; about 5,500 (1.4%) were called active. Inconclusive results, whose numbers are uncertain, are shown with a selection of clear calls. Calls come from the whole dose curve; as a rule, active = well fitted cell-killing curve with a large enough effect; inconclusive = small, poorly fitted or top-dose-only effect, or effect the other way; inactive = flat fitted curve, though single readings scatter. Potencies of inconclusive entries are doubtful fits and often do not repeat.

Assay: qHTS assay for MDR1-selective chemotherapeutics: Primary screen using the parental adenocarcinoma cell KB-3-1; note: nearly all actives have a fitted effect of over 60% in size
Conditions: KB-3-1 viability, CellTiter-Glo ATP luminescence, 72 h; activity change, negative = cytotoxic: at 46.1 µM (top of the series)
Outline: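 Parental KB-3-1 viability, qHTS format: 72 h compound exposure, 37 °C; CellTiter-Glo; media-only wells and DMSO plates as controls; concentration-effect fits on corrected data.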
% is set by controls: 0 for no effect and ±100 for the full control effect; potency is the fitted concentration of half-maximal effect.

Row | Structure (SMILES) | activity change, negative = cytotoxic | Potency
1 | CN(C(=O)COC(=O)COc1ccc2ccccc2c1)c1ccccc1 | inactive: 12.1% | 
2 | Cc1ccc2c(c1)N(C(=O)CCC(=O)N1CCN(c3cccc(C)c3C)CC1)CCO2 |  | inconclusive: 29.1 µM [cytotoxic, single point]
3 | CC(C)CC(O)C1CCN(C(=O)CCc2nnc(-c3ccccc3)o2)CC1 (stereo not given) |  | inconclusive: 13 µM [rising, partial curve]
4 | CCCCn1nnnc1C(c1cc2ccccc2o1)N1CCN(C(=O)OC(C)(C)C)CC1 (stereo not given) |  | inconclusive: 25.9 µM [cytotoxic, single point]
5 | Cc1cc(C)c(OCC(=O)Nc2ccccc2N2CCOCC2)c(C)c1 |  | active: 20.6 µM
6 | O=C(Nc1cccc(-c2nc3cccnc3s2)c1)c1cccnc1Cl |  | inconclusive: 0.0065 µM [rising, full curve]
7 | O=[N+]([O-])c1ccc(N=NN(CCO)CCO)cc1 | inactive: -3.05% | 
8 | c1ccc(OCCOCCN2CCN(C(c3ccccc3)c3ccccc3)CC2)cc1 |  | inconclusive: 32.6 µM [cytotoxic, single point]
9 | COc1cccc(CNS(=O)(=O)c2ccc3c(c2)CC(C)N3C(C)=O)c1 (stereo not given) |  | inconclusive: 16.4 µM [cytotoxic, partial curve]
10 | Cc1c([N+](=O)[O-])cc(C(=O)Nc2ccc(NC(=O)c3ccco3)cc2)cc1[N+](=O)[O-] |  | inconclusive: 29.1 µM [rising, single point]
11 | O=C(Nc1cccnc1)c1ccc(COc2ccccc2Br)o1 |  | active: 16.4 µM
12 | O=C(c1cccc(S(=O)(=O)NCc2ccccc2)c1)N1CCN(c2cccc(C(F)(F)F)c2)CC1 |  | inconclusive: 18.4 µM [cytotoxic, single point]
13 | CC(C)(C)c1ccc(/C=C/C(=O)Nc2ccc(S(N)(=O)=O)cc2)cc1 |  | inconclusive: 29.1 µM [cytotoxic, single point]
14 | O=C1CS(=O)(=O)C2(C(=O)N(Cc3ccccc3Cl)c3ccccc32)N1c1ccc(F)cc1 (stereo not given) | inactive: 8.69% | 
15 | CCN(CC)C(=O)c1ccc2nc(-c3ccccc3)c(-c3ccccc3)nc2c1 |  | inconclusive: 23.1 µM [cytotoxic, single point]
16 | Cc1ccc(NC(=O)/C(C#N)=C/c2ccc(-c3ccc(Cl)c(C(=O)O)c3)o2)cc1C |  | inconclusive: 29.1 µM [cytotoxic, single point]
17 | COc1ccc(C(=O)c2ccc(Cl)cc2)cc1 | inactive: 2.32% | 
18 | COc1ccccc1CNc1nc(Nc2cccc(-c3cnco3)c2)c2sccc2n1 |  | inconclusive: 29.1 µM [cytotoxic, single point]
19 | Cc1ccc(C(=O)Nc2cc(Cl)ccc2-n2cncn2)s1 |  | inconclusive: 10.3 µM [rising, partial curve, poor fit]
20 | CCCC(=O)N(c1ccc2oc(C)c(C(C)=O)c2c1)S(=O)(=O)c1ccc(CC)cc1 |  | active: 3.66 µM
21 | COc1cccc(CN2CCN(C(=O)c3cccc4ccccc34)CC2)c1OC | inactive: 6.98% | 
22 | Cc1cccc(C(=O)Nc2ccc(S(=O)(=O)N3CCC(c4nc5ccccc5s4)CC3)cc2)c1 | inactive: -8.25% | 
23 | CCN1C(=O)C(CC(=O)Nc2ccc(OC)cc2)N(CCc2ccc(F)cc2)C1=S (stereo not given) |  | inconclusive: 29.1 µM [cytotoxic, single point]
24 | CCOC(=O)C1CCN(c2ncc(-c3ccc4c(c3)OCCCO4)s2)CC1 |  | inconclusive: 14.6 µM [rising, partial curve, poor fit]

Row | Structure (SMILES) | activity change, negative = cytotoxic | Potency
25 | O=S(=O)(Nc1ccc2c(c1)nc1n2CCN(Cc2ccccc2)C1)c1ccc(F)cc1 |  | inconclusive: 16.4 µM [cytotoxic, single point]
26 | COc1ccc(CNC(=O)C(=O)NCC2CCCO2)cc1 (stereo not given) |  | active: 18.4 µM
27 | C=Cc1ccc(Cn2c(C(=O)O)c(CNCc3ccc(F)cc3)c3ccc(C)cc32)cc1 |  | active: 7.31 µM
28 | COc1ccc2cc(CN(CCCN3CCOCC3)Cc3nnnn3C3CCCCC3)c(=O)[nH]c2c1 | inactive: -11.3% | 
29 | N#CC[C@H](c1ccccc1)N1CCN(Cc2ccccc2)CCC1=O | inactive: 0.689% | 
30 | COc1ccccc1Nc1nc(-c2ccccc2F)nc2ccccc12 |  | inconclusive: 10.3 µM [cytotoxic, partial curve, poor fit]
31 | Cc1ccc(-c2nc3c(C)cc(Br)cn3c2Cc2ccsc2)cc1 |  | inconclusive: 29.1 µM [cytotoxic, single point]
32 | CC1(C(=O)NS(C)(=O)=O)CCN1C(=O)C/C=C/c1ccccc1 (stereo not given) | inactive: 0% | 
33 | Cc1ccc(N2C(N)=C(C#N)C(c3cccs3)C3=C2CC(C)(C)CC3=O)cc1 (stereo not given) |  | inconclusive: 29.1 µM [cytotoxic, single point]
34 | COc1ccc(Cl)cc1NC(=O)Nc1cnccn1 |  | inconclusive: 9.2 µM [cytotoxic, partial curve]
35 | CN(CC(=O)Nc1ccc(Cl)c(C(F)(F)F)c1)C(=O)C1CC(=O)N(CCc2ccccc2)C1 (stereo not given) |  | inconclusive: 29.1 µM [cytotoxic, single point]
36 | Cc1cc(C)cc(NC(=O)C2(c3ccccc3)CC2(Cl)Cl)c1 (stereo not given) |  | inconclusive: 29.1 µM [cytotoxic, single point]
37 | COc1cccc(NC(=O)CSc2nn3c(=O)c(C)nnc3s2)c1 |  | inconclusive: 32.6 µM [cytotoxic, single point]
38 | Cc1cccc2sc(NS(C)(=O)=O)nc12 | inactive: -16.1% | 
39 | O=C(COc1ccc(F)cc1F)Nc1cccnc1 |  | inconclusive: 29.1 µM [rising, single point]
40 | COc1ccc(OC)c(S(=O)(=O)Nc2ccc3oc4c(c3c2)C(=O)CCC4)c1 | inactive: -11% | 
41 | CC(=O)c1ccc(N2CCN(S(=O)(=O)c3ccc4ccccc4c3)CC2)cc1 |  | inconclusive: 29.1 µM [cytotoxic, single point]
42 | CCCCNC1C(CC)C(CCC)C(C#N)(C#N)C1(C#N)C#N (stereo not given) |  | inconclusive: 16.4 µM [cytotoxic, partial curve]
43 | COCCn1c(SCc2nc3ccccc3c(=O)[nH]2)nc2ccccc2c1=O | inactive: 10.9% | 
44 | CCOC(=O)C(=O)N/N=C/c1ccc(F)cc1 | inactive: -0.335% | 
45 | Cc1ccc(NC(=O)CSc2nnc3ccc4ccccc4n23)cc1 | inactive: 3.53% | 
46 | CC(C)(C)c1ccc(C(=O)N/N=C/c2cccc(Cl)c2)cc1 |  | inconclusive: 25.9 µM [cytotoxic, partial curve, poor fit]
47 | Cc1ccc(Cc2nc3ccccc3[nH]2)cc1 |  | inconclusive: 14.6 µM [cytotoxic, single point]
48 | CN(C)c1ccc(C2CC(c3cccc(NS(C)(=O)=O)c3)=NN2C(=O)c2ccccc2)cc1 (stereo not given) | inactive: 7.59% | 

Grouped by structure: those above containing an NH in an aromatic ring
Row | Structure (SMILES) | activity change, negative = cytotoxic | Potency
28 | COc1ccc2cc(CN(CCCN3CCOCC3)Cc3nnnn3C3CCCCC3)c(=O)[nH]c2c1 | inactive: -11.3% | 
43 | COCCn1c(SCc2nc3ccccc3c(=O)[nH]2)nc2ccccc2c1=O | inactive: 10.9% | 
47 | Cc1ccc(Cc2nc3ccccc3[nH]2)cc1 |  | inconclusive: 14.6 µM [cytotoxic, single point]

Following part

Row | Structure (SMILES) | activity change, negative = cytotoxic | Potency
49 | CC(=O)Nc1nc2cc3c(cc2s1)OCCO3 |  | inconclusive: 20.6 µM [cytotoxic, single point]
50 | Cc1ccc(OCC(=O)N2N=C(c3ccncc3)CC2(O)C(F)(F)F)cc1C (stereo not given) |  | inconclusive: 18.4 µM [cytotoxic, single point]
51 | Cc1nc2nc(-c3ccccc3)cc(=O)n2[nH]1 |  | inconclusive: 6.51 µM [cytotoxic, full curve, poor fit]
52 | COc1ccc(OC)c2sc(NC(=O)C(C)C)nc12 |  | inconclusive: 18.4 µM [rising, partial curve]
53 | C/C(=N/NC(=O)CNC(=O)c1ccccn1)c1cccc([N+](=O)[O-])c1 | inactive: 10.4% | 
54 | S=C(NCc1cccnc1)Nc1ccc(Oc2ccc(Cl)cc2)cc1 |  | inconclusive: 29.1 µM [cytotoxic, single point]
55 | COc1cc(Cl)c(CN2CCCC(CO)(Cc3cccc(Cl)c3)C2)cc1OC (stereo not given) |  | inconclusive: 14.6 µM [cytotoxic, partial curve, poor fit]
56 | Cc1cc(C)c2cc3c(N)c(C(=O)N4CCc5ccccc5C4)sc3nc2c1 | inactive: 3.36% | 
57 | COc1ccc([N+](=O)[O-])cc1NC(=O)C(C)Sc1ccc(C)cc1 (stereo not given) |  | inconclusive: 0.0461 µM [rising, full curve]
58 | COc1cccc(-c2nn(C)c3sc(C(=O)NCc4ccco4)cc23)c1 |  | inconclusive: 29.1 µM [cytotoxic, partial curve, poor fit]
59 | CCc1ccc(NC(=O)N(CCCN2CCOCC2)C(C)c2cc3cccc(OC)c3o2)cc1 (stereo not given) |  | inconclusive: 20.6 µM [cytotoxic, partial curve, poor fit]
60 | COc1ccc(NC(=O)c2ccncc2)cc1S(=O)(=O)N1CCCCC1 |  | inconclusive: 29.1 µM [cytotoxic, single point]
61 | CCCN(CCC)S(=O)(=O)c1ccc(C(=O)Nc2cccc(-c3nc4ccccc4[nH]3)c2)cc1 |  | inconclusive: 25.9 µM [cytotoxic, single point]
62 | Cc1ccc(C)c(NC(=O)c2ccc(S(=O)(=O)C(F)F)cc2)c1 | inactive: 4.43% | 
63 | O=C(Nc1cc([N+](=O)[O-])c2[nH]c(=O)c3ccccc3c2c1)C(F)(F)F | inactive: 4.96% | 
64 | CCN(CC)CCN(C(=O)c1ccco1)c1nc2cc(C)cc(C)c2s1 |  | inconclusive: 0.0065 µM [rising, full curve]
65 | Cc1ccc(S(=O)(=O)NCc2ccc(C(=O)NCCN(Cc3ccccc3)C(C)C)cc2)cc1 |  | inconclusive: 11.6 µM [cytotoxic, partial curve]
66 | Nc1c(C(=O)Nc2ccc(S(=O)(=O)N3CCCC3)cc2)sc2nc3cc4c(cc3cc12)CCC4 |  | inconclusive: 16.4 µM [cytotoxic, single point]
67 | CCN(CC)C(=O)C1=C(C)N(Cc2ccc(C(C)(C)C)cc2)C(=O)C(CC(=O)NCc2ccco2)C1 (stereo not given) | inactive: 0.365% | 
68 | COc1ccc(C(NC(=O)c2ccc(-c3ccccc3)cc2)c2ccccc2)cc1 (stereo not given) |  | inconclusive: 32.6 µM [rising, single point]
69 | CCOc1ccc(-n2c(C)nnc2SCC(=O)N(CC)CC)cc1 | inactive: 3.32% | 
70 | CCCN(CCC)C(=O)CSc1nc2n[nH]c(C)c2c(=N)n1-c1ccc(OC)cc1 |  | inconclusive: 20.6 µM [cytotoxic, single point]
